Binding data for one molecule are collected here from patent US20150168399A1 (INSERM INSTITUT NATIONAL DE LA SANTE ET DE LA RECHERCHE …, published 2015).

Protein sequences, listed by entry. Tags and fused reporters are not part of them. Lines headed by an entry give the natural chain unless they say otherwise; changes in a name come on top.
UniProt P20701: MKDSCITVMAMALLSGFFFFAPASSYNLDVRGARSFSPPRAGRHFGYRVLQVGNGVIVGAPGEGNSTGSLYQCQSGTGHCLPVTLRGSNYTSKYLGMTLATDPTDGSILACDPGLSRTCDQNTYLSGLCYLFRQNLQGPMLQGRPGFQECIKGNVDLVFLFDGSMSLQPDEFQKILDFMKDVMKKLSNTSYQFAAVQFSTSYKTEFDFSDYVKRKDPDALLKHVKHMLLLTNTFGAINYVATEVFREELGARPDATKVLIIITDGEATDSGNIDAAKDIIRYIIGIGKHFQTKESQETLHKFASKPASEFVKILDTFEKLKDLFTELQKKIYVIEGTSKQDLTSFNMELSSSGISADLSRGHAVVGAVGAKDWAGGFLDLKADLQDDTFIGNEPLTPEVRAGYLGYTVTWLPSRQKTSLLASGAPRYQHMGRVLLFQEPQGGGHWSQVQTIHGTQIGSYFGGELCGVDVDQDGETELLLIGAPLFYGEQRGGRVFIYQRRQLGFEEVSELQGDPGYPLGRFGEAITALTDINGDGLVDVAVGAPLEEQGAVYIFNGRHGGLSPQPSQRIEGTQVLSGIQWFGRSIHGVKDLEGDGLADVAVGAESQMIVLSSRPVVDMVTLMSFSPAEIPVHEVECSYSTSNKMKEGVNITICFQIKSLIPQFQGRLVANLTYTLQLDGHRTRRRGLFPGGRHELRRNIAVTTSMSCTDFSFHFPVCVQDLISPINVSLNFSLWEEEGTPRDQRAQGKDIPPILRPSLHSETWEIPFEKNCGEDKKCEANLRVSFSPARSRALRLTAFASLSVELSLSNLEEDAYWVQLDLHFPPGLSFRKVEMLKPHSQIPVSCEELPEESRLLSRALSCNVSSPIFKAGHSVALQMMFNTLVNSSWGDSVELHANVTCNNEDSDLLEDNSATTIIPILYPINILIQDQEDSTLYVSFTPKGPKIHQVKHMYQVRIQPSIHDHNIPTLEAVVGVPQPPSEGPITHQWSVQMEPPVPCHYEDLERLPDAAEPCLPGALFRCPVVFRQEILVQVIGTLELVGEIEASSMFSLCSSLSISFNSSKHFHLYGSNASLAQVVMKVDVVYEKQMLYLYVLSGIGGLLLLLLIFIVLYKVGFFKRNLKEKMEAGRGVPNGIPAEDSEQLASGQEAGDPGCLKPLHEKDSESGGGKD
UniProt P05107: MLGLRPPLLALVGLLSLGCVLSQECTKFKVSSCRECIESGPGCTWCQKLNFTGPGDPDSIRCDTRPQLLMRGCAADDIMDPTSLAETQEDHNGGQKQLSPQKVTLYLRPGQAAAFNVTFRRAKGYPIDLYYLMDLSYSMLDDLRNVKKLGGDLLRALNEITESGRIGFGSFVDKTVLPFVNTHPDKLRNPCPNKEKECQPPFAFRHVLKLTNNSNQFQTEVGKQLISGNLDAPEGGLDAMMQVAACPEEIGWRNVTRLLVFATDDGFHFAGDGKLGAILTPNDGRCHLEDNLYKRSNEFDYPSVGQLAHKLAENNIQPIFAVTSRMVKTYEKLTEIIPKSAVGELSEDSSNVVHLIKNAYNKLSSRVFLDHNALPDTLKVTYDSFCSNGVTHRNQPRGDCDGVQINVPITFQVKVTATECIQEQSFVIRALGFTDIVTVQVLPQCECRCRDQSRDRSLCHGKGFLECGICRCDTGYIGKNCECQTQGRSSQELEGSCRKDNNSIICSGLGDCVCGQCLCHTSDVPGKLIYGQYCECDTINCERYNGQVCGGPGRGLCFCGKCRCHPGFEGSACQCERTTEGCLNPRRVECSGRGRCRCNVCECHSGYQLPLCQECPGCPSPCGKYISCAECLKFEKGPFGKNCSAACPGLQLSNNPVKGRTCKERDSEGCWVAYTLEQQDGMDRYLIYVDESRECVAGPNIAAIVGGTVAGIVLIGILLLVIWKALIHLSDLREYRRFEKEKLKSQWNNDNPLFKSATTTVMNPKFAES

No constants are given. Whether binding was seen depends on the method and setting. Some binding calls cover weakened binding; strength is not graded here.

For the experiment, the target named is human leukocyte integrin LFA-1 (CD11a/CD18) on Jurkat cells or human NK cells (human) (UniProt P20701+P05107). Nature of the experiment: competition on Jurkat cells, bound endocan in lysate by ELISA. A general note: An ELISA detects its analyte on a solid surface through an enzyme-linked reagent.

B1: endocan p14 derived from cathepsin G-treated endocan (peptide)
chain: WSNNYAVDCPQHCDSSECKSSPRCKRTVLDDCGCCRVCAAGRGETCYRTVSGMDGMKCGPGLRCQPSNGEDPFGEEFGICKDCPYGTFGMDCRETCNCQSGICDRGTGKCLKFPFF
With B1, the binding result was “binds”.
